Measured values from paper PMC11461026.
Results are given in words; binding and its absence hold for the method and conditions named. For part of these data: A result given as binding can be weak or reduced; the word gives no strength. Tags and fused reporters may be left off the sequences shown.

Legend:
Assay in all cases: two-hybrid; AH109 yeast co-transformed with Gal4-DB effector baits (pDEST-DB) and Gal4-AD Arabidopsis preys (pDEST22); growth on -LWH against -LW plates, 30 C, three days; pairwise screen and dilution series
[1] = molecular target: Pseudomonas syringae pv. tomato DC3000 effector HopO1, Gal4BD-tagged (Pseudomonas syringae pv. tomato DC3000)
[2] = molecular target: Pseudomonas syringae pv. tomato DC3000 effector AvrPto, Gal4BD-tagged (Pseudomonas syringae pv. tomato DC3000)
[3] = molecular target: Pseudomonas syringae pv. tomato DC3000 effector HopM1, Gal4BD-tagged (Pseudomonas syringae pv. tomato DC3000)

B1: NECROTIC SPOTTED LESIONS 1 (NSL1), Gal4AD-tagged (protein, UniProt Q9SGN6 1-612)
chain: MAFNNFTRLDAHSAAEKAVSVIGLGYDLCSDVRFSACKTTPDGSRLVEIDPTRNRDLIFPGGIVVNNVSSSIKCDKGERTRLRSDILSFNQMSEKFNQDMCLSGKIPSGMFNNMFAFSKCWPKDASSVKTLAYDGWFISLYSVEIVRKQLTLRDEVKREVPSSWDSAALAGFIEKYGTHVVVGVTMGGKDVIHVKQMRKSNHEPEEIQKMLKHWGDERFCVDPVESKSPASVYSGKPKEENLLQWGLQPFGTSVSSAVVMHTKNEEIMRVCIRRGGVDLGQSHERWLSTVSQAPNVISMCFVPITSLLSGLPGTGFLSHAVNLYLRYKPPIEELHQFLEFQLPRQWAPVYGDLPLGLRRSKQSSPSLQFSLMGPKLYVNTSKVDSGERPVTGLRFFLEGKKGNHLAIHLQHLSACPPSLHLSHDDTYEPIEEPVEKGYYVPVKWGIFSHVCTYPVQYNGARSDDTASIVTKAWLEVKGMGMRKVLFLRLGFSLDASAVTRKSCWDNLSTNSRKSGVFSMISTRLSTGLSPNPATTKPQSKIDINSAVYPRGPSPPVKPKLLSLVDTKEVMRGPEEQPGYWVVTGAKLCVEAGKISIKAKYSLLTVISEDSLV
**Q.** B1 was tested. Which binding [1] did it give?
**A.** The binding was “no binding”.

**Q.** And the binding [2]?
**A.** Its binding is “no binding”.

**Q.** What about the binding [3] of the same binder?
**A.** Its binding is “binds”.

B2: CONSTITUTIVE ACTIVE DEFENSE 1 (CAD1), Gal4AD-tagged (protein, UniProt Q9C7N2 1-561)
chain: MENRKGGNFSVPSSEALTTTLRNAIQALGRGFDVTSDVRLLYCKGAPGSRLVRIEEGQNRDLELSHGFLLPNVPADIDCSRGNSGTQRISVCSFHEMAEEFNVRSGVKGNIPLGCFNAMFNYTGSWQVDAASTKSLALVGYFIPLYDVKLAKLTLVLHNEIRRAVPSSWDPASLASFIENYGTHIVTSVTIGGRDVVYIRQHQSSPLPVSEIENYVNDMIKHRFHEAESQSITGPLKYKDKDITVIFRRRGGDDLEQSHARWAETVPAAPDIINMTFTPIVSLLEGVPGLRHLTRAIELYLEYKPPIEDLQYFLDYQIARAWAPEQSNLQRKEPVCSSLQFSLMGPKLFISADQVTVGRKPVTGLRLSLEGSKQNRLSIHLQHLVSLPKILQPHWDSHVPIGAPKWQGPEEQDSRWFEPIKWKNFSHVSTSPIEHTETHIGDLSGVHIVTGAQLGVWDFGSKNVLHLKLLFSKVPGCTIRRSVWDHTPVASSGRLEPGGPSTSSSTEEVSGQSGKLAKIVDSSEMLKGPQDLPGHWLVTGAKLGVEKGKIVLRVKYSLLNY
**Q.** What does the source list for B2?
**A.** binding [1]: no binding; binding [2]: no binding; binding [3]: no binding
